From the supplement of paper PMC6078165

Test system: MDAMB231
Experiment: relative JC-1 red fluorescence (viability) vs pre-drug, coculture with fibroblast (fraction); higher = more viable cancer cells
Description: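 JC-1 labelled TNBC cells cocultured 1:1 (1,500 cells each) with CellTrace Violet stained primary or stromal fibroblasts in 384-well plates in FluoroBrite medium, treated with one of 42 anticancer drugs at 0.1, 1, 10 or 100 uM. JC-1 red fluorescence (mitochondrial integrity in cancer cells only) was read by plate reader every 8 h for 72 h. Values are normalised to each well's pre-drug value. The stock of one drug was tenfold lower, so its dose labels may be too high.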

CCc1c2c(nc3ccc(OC(=O)N4CCC(N5CCCCC5)CC4)cc13)-c1cc3c(c(=O)n1C2)COC(=O)[C@]3(O)CC [Irinotecan]
relative JC-1 red fluorescence
Details	8 h	16 h	24 h	32 h	40 h	48 h	56 h	64 h	72 h
0.1 µM, coculture fibroblast: C12385	0.744	0.7026	0.62	0.588	0.526	0.492	0.444	0.437	0.411
0.1 µM, coculture fibroblast: H6013	0.8715	0.80307	0.778	0.7595	0.7239	0.7026	0.692	0.6696	0.632
0.1 µM, coculture fibroblast: H6019	0.761	0.727	0.609	0.603	0.541	0.509	0.474	0.443	0.397
0.1 µM, coculture fibroblast: H6076	0.892	0.809	0.739	0.7073	0.656	0.613	0.573	0.555	0.541
0.1 µM, coculture fibroblast: H6231	0.87	0.778	0.717	0.688	0.634	0.6	0.559	0.541	0.519
0.1 µM, coculture fibroblast: HADF	0.858	0.804	0.7696	0.7369	0.699	0.658	0.644	0.63	0.586
0.1 µM, coculture fibroblast: HCFa	0.892	0.846	0.803	0.765	0.711	0.644	0.6167	0.585	0.54
0.1 µM, coculture fibroblast: HCPF	0.871	0.7627	0.6901	0.6625	0.61	0.567	0.53	0.498	0.476
0.1 µM, coculture fibroblast: HHSteC	0.87991	0.828	0.783	0.741	0.697	0.668	0.624	0.596	0.554
0.1 µM, coculture fibroblast: HMF	0.8619	0.771	0.724	0.681	0.6365	0.597	0.556	0.545	0.526
0.1 µM, coculture fibroblast: HPFa	0.929	0.873	0.8124	0.748	0.719	0.676	0.62	0.578	0.511
0.1 µM, coculture fibroblast: HUF	0.849	0.731	0.702	0.593	0.522	0.485	0.43	0.406	0.381
0.1 µM, coculture fibroblast: Hs5	0.833	0.785	0.771	0.734	0.706	0.664	0.637	0.6124	0.5879
0.1 µM, coculture fibroblast: Hs27A	0.8751	0.8237	0.777	0.74697	0.694	0.616	0.622	0.5966	0.547
0.1 µM, coculture fibroblast: Hs343T	0.8707	0.73593	0.6696	0.63606	0.5784	0.538	0.48	0.459	0.443
0.1 µM, coculture fibroblast: WS1	0.718	0.673	0.603	0.559	0.504	0.471	0.423	0.405	0.378
1 µM, coculture fibroblast: C12385	0.745	0.696	0.665	0.611	0.5	0.479	0.462	0.476	0.468
1 µM, coculture fibroblast: H6013	0.866	0.8646	0.835	0.824	0.794	0.795	0.778	0.762	0.719
1 µM, coculture fibroblast: H6019	0.81	0.76	0.698	0.667	0.62	0.597	0.555	0.538	0.499
1 µM, coculture fibroblast: H6076	0.843	0.766	0.716	0.685	0.636	0.587	0.566	0.55	0.532
1 µM, coculture fibroblast: H6231	0.836	0.85	0.807	0.76	0.689	0.644	0.599	0.58	0.56
1 µM, coculture fibroblast: HADF	0.845	0.8383	0.814	0.766	0.744	0.71	0.689	0.684	0.639
1 µM, coculture fibroblast: HCFa	0.8792	0.859	0.826	0.7821	0.735	0.6759	0.642	0.603	0.554
1 µM, coculture fibroblast: HCPF	0.86	0.73	0.686	0.657	0.595	0.555	0.524	0.497	0.48
1 µM, coculture fibroblast: HHSteC	0.918	0.8836	0.842	0.789	0.763	0.737	0.689	0.665	0.6184
1 µM, coculture fibroblast: HMF	0.898	0.8337	0.78	0.738	0.688	0.65	0.632	0.616	0.6
1 µM, coculture fibroblast: HPFa	0.913	0.868	0.8263	0.761	0.731	0.694	0.621	0.586	0.532
1 µM, coculture fibroblast: HUF	0.8436	0.7415	0.749	0.6263	0.558	0.539	0.48	0.472	0.449
1 µM, coculture fibroblast: Hs5	0.892	0.81	0.751	0.695	0.643	0.593	0.557	0.53	0.496
1 µM, coculture fibroblast: Hs27A	0.8805	0.8414	0.8111	0.79	0.7304	0.674	0.6639	0.644	0.595
1 µM, coculture fibroblast: Hs343T	0.8691	0.777	0.729	0.682	0.624	0.572	0.524	0.498	0.463
1 µM, coculture fibroblast: WS1	0.725	0.686	0.619	0.554	0.499	0.465	0.421	0.418	0.394
10 µM, coculture fibroblast: C12385	0.786	0.763	0.655	0.651	0.589	0.55	0.507	0.493	0.472
10 µM, coculture fibroblast: H6013	0.9114	0.873	0.848	0.84	0.8	0.77	0.759	0.741	0.704
10 µM, coculture fibroblast: H6019	0.846	0.824	0.765	0.766	0.724	0.697	0.662	0.644	0.601
10 µM, coculture fibroblast: H6076	0.908	0.852	0.827	0.812	0.79	0.766	0.752	0.753	0.752
10 µM, coculture fibroblast: H6231	0.9418	0.8679	0.843	0.817	0.787	0.763	0.72	0.709	0.688
10 µM, coculture fibroblast: HADF	0.9021	0.8527	0.8259	0.7937	0.764	0.699	0.696	0.681	0.627
10 µM, coculture fibroblast: HCFa	0.888	0.84664	0.8248	0.793	0.759	0.716	0.695	0.66	0.625
10 µM, coculture fibroblast: HCPF	0.89227	0.818	0.789	0.791	0.751	0.72	0.682	0.654	0.63
10 µM, coculture fibroblast: HHSteC	0.93	0.938	0.797	0.848	0.718	0.792	0.696	0.747	0.776
10 µM, coculture fibroblast: HMF	0.9141	0.822	0.783	0.756	0.718	0.679	0.641	0.624	0.604
10 µM, coculture fibroblast: HPFa	0.9478	0.913	0.862	0.812	0.786	0.74	0.6841	0.652	0.613
10 µM, coculture fibroblast: HUF	0.884	0.7898	0.7804	0.674	0.601	0.569	0.52	0.509	0.489
10 µM, coculture fibroblast: Hs5	0.856	0.809	0.785	0.753	0.727	0.6873	0.674	0.657	0.6457
10 µM, coculture fibroblast: Hs27A	0.9038	0.8598	0.8236	0.802	0.759	0.7014	0.717	0.702	0.663
10 µM, coculture fibroblast: Hs343T	0.917	0.846	0.793	0.765	0.712	0.665	0.621	0.586	0.562
10 µM, coculture fibroblast: WS1	0.782	0.74406	0.6588	0.6506	0.606	0.5694	0.539	0.539	0.506
100 µM, coculture fibroblast: C12385	0.815	0.8286	0.822	0.8391	0.786	0.79	0.774	0.789	0.7684
100 µM, coculture fibroblast: H6013	0.9365	0.924	0.906	0.911	0.8926	0.876	0.875	0.8697	0.838
100 µM, coculture fibroblast: H6019	0.8705	0.864	0.881	0.8597	0.852	0.87	0.861	0.896	0.896
100 µM, coculture fibroblast: H6076	0.9266	0.924	0.9326	0.9224	0.9	0.868	0.866	0.873	0.875
100 µM, coculture fibroblast: H6231	0.977	0.895	0.946	0.937	0.893	0.873	0.857	0.835	0.805
100 µM, coculture fibroblast: HADF	0.932	0.9382	0.935	0.929	0.924	0.899	0.893	0.8994	0.848
100 µM, coculture fibroblast: HCFa	0.963	0.907	0.897	0.911	0.853	0.928	0.921	0.887	0.859
100 µM, coculture fibroblast: HCPF	0.926	0.9024	0.8791	0.8655	0.835	0.81	0.788	0.759	0.745
100 µM, coculture fibroblast: HHSteC	0.96	0.903	0.831	0.848	0.84	0.833	0.835	0.813	0.943
100 µM, coculture fibroblast: HMF	0.9459	0.9374	0.9272	0.911	0.894	0.8662	0.846	0.83	0.814
100 µM, coculture fibroblast: HPFa	0.9581	0.9737	0.9587	0.944	0.949	0.934	0.911	0.893	0.876
100 µM, coculture fibroblast: HUF	0.95	0.91578	0.904	0.905	0.874	0.882	0.852	0.87	0.87
100 µM, coculture fibroblast: Hs5	0.918	0.92	0.922	0.908	0.901	0.868	0.867	0.852	0.841
100 µM, coculture fibroblast: Hs27A	0.9431	0.951	0.94	0.949	0.947	0.924	0.8927	0.847	0.929
100 µM, coculture fibroblast: Hs343T	0.9515	0.9416	0.9493	0.931	0.895	0.868	0.846	0.823	0.798
100 µM, coculture fibroblast: WS1	0.8433	0.824	0.853	0.803	0.793	0.793	0.784	0.8018	0.793

The reference is the same well before dosing, and untreated signal decays as well.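 Fibroblast labels name human fibroblasts: mostly primary ones from tissues such as uterus (C12385, HUF), lung (H6013), bone (Hs27A), adrenal (HADF) and skin (WS1), plus mammary HMF and breast cancer-associated Hs343T. The cancer cells are basal-like or mesenchymal-like triple-negative breast cancer lines. The paper calls a changed response a hit when it shifts by more than 3x the replicate standard deviation. The tissue of the other fibroblasts is not given here.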
